Data: publication PMC6002264
These are yes or no findings as the source states them, for the method shown. In cells and extracts the contact can be indirect. Some entries that bind do so weakly or less than the wild type.

Chains of the proteins cited; added tags and fusions are not shown.
UniProt Q8C7M3: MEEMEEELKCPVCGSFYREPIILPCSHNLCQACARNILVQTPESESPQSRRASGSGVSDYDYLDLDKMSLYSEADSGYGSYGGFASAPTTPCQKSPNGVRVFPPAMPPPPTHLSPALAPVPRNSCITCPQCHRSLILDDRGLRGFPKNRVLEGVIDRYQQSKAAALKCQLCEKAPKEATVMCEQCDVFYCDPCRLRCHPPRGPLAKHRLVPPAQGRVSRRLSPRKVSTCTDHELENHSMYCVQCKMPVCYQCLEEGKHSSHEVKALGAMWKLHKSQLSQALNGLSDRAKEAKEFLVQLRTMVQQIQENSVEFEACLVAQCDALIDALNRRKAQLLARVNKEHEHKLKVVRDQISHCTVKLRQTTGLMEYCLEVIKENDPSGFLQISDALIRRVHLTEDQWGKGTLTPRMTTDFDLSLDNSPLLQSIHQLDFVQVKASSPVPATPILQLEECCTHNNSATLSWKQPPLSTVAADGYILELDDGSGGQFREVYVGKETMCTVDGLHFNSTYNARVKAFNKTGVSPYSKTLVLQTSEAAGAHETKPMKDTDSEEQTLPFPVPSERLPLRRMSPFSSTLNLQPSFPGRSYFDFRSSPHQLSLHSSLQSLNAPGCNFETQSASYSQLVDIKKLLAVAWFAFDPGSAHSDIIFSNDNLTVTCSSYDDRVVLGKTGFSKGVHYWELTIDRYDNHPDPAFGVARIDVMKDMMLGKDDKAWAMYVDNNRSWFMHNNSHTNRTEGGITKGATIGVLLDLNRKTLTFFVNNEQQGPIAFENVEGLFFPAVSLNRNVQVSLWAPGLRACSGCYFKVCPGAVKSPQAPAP

Target: TRIM9 (endogenous, mouse) (mouse (endogenous in embryonic cortex)) (UniProt Q8C7M3)
Assay: co-IP; immunoprecipitation with the TRIM9 polyclonal antibody from wild-type mouse embryonic cortical / brain lysate; Trim9-/- lysate as control; blot probed for TRIM67

B1: TRIM67 (endogenous, mouse) (protein, UniProt Q505D9 1-768)
chain: MEEELKCPVCGSLFREPIILPCSHNVCLPCARTIAVQTPDGEQHLPPPLLLSRGAAAAATPPDQDAAAGATSGGAGANTAGGLGGGATGGGDHADKLSLYSETDSGYGSYTPSLKSPNGVRVLPMVPAPPGSSAAAARGAACSSLCSSSSSITCPQCHRSASLDHRGLRGFQRNRLLEGIVQRYQQGRGVVPGAAAAPAVAICQLCDRTPPEPAATLCEQCDVLYCATCQLKCHPSRGPFAKHRLVQPPPPPTPPEATPAVTGTSTASSAGGCRSPGGAGASAPRKFPTCPEHEMENYSMYCVSCRSPVCYMCLEEGRHSKHEVKPLGATWKQHKAQLSQALNGVSDKAKEAKEFLVQLKNILQQIQENGLDYEACLVAQCDALVDALTRQKAKLLTKVTKEREHKLKMVWDQINHCTLKLRQSTGLMEYCLEVIKEDDPSGFLQISDALIKRVQTSQEQWVKGALEPKVSAEFDLTLDSEPLLQAIHQLDFVQMKLPPVPLLQLEKCCTRNNSVTLAWRTPPFTHSPAEGYILELDDGDGGQFREVYVGKETLCTIDGLHFNSTYNARVKAFNSSGVGPYSKTVVLQTSDVAWFTFDPNSGHRDIILSNDNQTATCSSYDDRVVLGTAAFSKGVHYWELHVDRYDNHPDPAFGVARASVVKDMMLGKDDKAWAMYVDNNRSWFMHCNSHTNRTEGGVCKGATVGVLLDLNKHTLTFFINGQQQGPTAFSHVDGVFMPALSLNRNVQVTLHTGLEVPTNLGRPKLSGN
With B1 the binding was “binds”.
